In the supplement of paper PMC8732350:
Where a name gives a salt, the structure may show the parent alone. ± gives the standard deviation of the averaged measurements. The list shows a part of the results. Single values are uncertain here, since repeats match poorly.

Tested on: A549
Assay: surface PD-L1 immunofluorescence intensity relative to IFN-gamma-only control (ratio); higher = more PD-L1 expression
Details: 10 µM; exposure time 24 h; IFN-gamma 100 ng/mL

Row | Compound | surface PD-L1 immunofluorescence intensity
1 | Cn1cc(/C=C2\C(=O)Nc3cccnc32)c2ccccc21 | 1.06
2 | Cc1ccc(NC(=O)C2(c3ccc4c(c3)OC(F)(F)O4)CC2)nc1-c1cccc(C(=O)O)c1 | 1.08
3 | Cc1c(O)c(=O)n(-c2ccccc2)n1C [Antipyrine, 4-hydroxy] | 0.817
4 | O=S(=O)(O)Oc1ccc(C(c2ccc(OS(=O)(=O)O)cc2)c2ccccn2)cc1 [Sodium Picosulfate] | 0.981
5 | CC=CC1=C(C(=O)O)N2C(=O)[C@@H](NC(=O)[C@H](N)c3ccc(O)cc3)[C@H]2SC1 [Cefprozil hydrate (Cefzil)] | 1.05
6 | COc1cc2c(NC3CCN(C)CC3)nc(N3CCCN(C)CC3)nc2cc1OCCCN(C)C | 1.02
7 | NC(=O)CC[C@H](N)C(=O)O [L-Glutamine] | 0.934
8 | Cc1cc2c(s1)Nc1ccccc1N=C2N1CCN(C)CC1 [Olanzapine] | 0.893
9 | Cc1cc(C(=O)O)sc1C(N)C(=O)O (stereo not given) | 1.05
10 | CN1C(=O)C(Cc2c[nH]c3ccccc23)NC1=S (stereo not given) [Necrostatin-1] | 0.888
11 | COC(=O)C(Cc1ccc(OCCn2c(=O)sc3cc(C(=O)c4ccccc4)ccc32)cc1)C(=O)OC | 1.02
12 | CCN(CC)CCOC(=O)c1ccc(N)cc1 [Procaine hydrochloride] | 0.815
13 | CC1(c2ccccc2)OC(C(=O)O)=CC1=O (stereo not given) [Acifran] | 1.02
14 | Clc1ccc(C(Cn2ccnc2)OCc2ccc(Sc3ccccc3)cc2)c(Cl)c1 (stereo not given) [Fenticonazole nitrate] | 1.27
15 | CC[C@H](C)C(=O)O[C@H]1C[C@@H](C)C=C2C=C[C@H](C)[C@H](CC[C@@H]3C[C@@H](O)CC(=O)O3)[C@H]21 [Lovastatin] | 1.01 ± 0.058
16 | CC[C@H](C)C(=O)O[C@H]1C[C@@H](C)C=C2C=C[C@H](C)[C@H](CC[C@@H]3C[C@@H](O)CC(=O)O3)[C@H]21 [Lovastatin (Mevacor)] | 1.09
17 | Cc1c(C)c2c(c(C)c1O)CCC(C)(C(=O)O)O2 (stereo not given) [Trolox] | 0.939 ± 0.061
18 | O=c1[nH]c2cc(C(F)(F)F)ccc2n1-c1cc(C(F)(F)F)ccc1O | 1.03
19 | COc1cc(C2Oc3cc([C@H]4Oc5cc(O)cc(O)c5C(=O)[C@@H]4O)ccc3OC2CO)ccc1O (stereo not given in full) [Silibinin (Silybin)] | 1.05
20 | O=c1cc(-c2ccccc2)oc2cc(O)c(O)c(O)c12 [Baicalein] | 0.953 ± 0.053
21 | CN(C)CCn1nnnc1SCC1=C(C(=O)O)N2C(=O)[C@@H](NC(=O)Cc3csc(N)n3)[C@H]2SC1 [Cefotiam hydrochloride] | 0.961
22 | CC(=O)N[C@@H](CS)C(=O)O [Acetylcysteine] | 0.994
23 | CC(=O)N[C@@H](CS)C(=O)O [N-Acetyl-Cysteine] | 0.968
24 | N[C@@H](Cc1cc(I)c(Oc2ccc(O)cc2)c(I)c1)C(=O)O [3,5-Diiodo-L-thyronine] | 0.993
25 | C[C@]1(c2nc3c(C(N)=O)cccc3[nH]2)CCCN1 [ABT-888 (Veliparib)] | 1.1

11 consecutive entries from above, quoted:
Row | Compound | surface PD-L1 immunofluorescence intensity
8 | Cc1cc2c(s1)Nc1ccccc1N=C2N1CCN(C)CC1 [Olanzapine] | 0.893
9 | Cc1cc(C(=O)O)sc1C(N)C(=O)O (stereo not given) | 1.05
10 | CN1C(=O)C(Cc2c[nH]c3ccccc23)NC1=S (stereo not given) [Necrostatin-1] | 0.888
11 | COC(=O)C(Cc1ccc(OCCn2c(=O)sc3cc(C(=O)c4ccccc4)ccc32)cc1)C(=O)OC | 1.02
12 | CCN(CC)CCOC(=O)c1ccc(N)cc1 [Procaine hydrochloride] | 0.815
13 | CC1(c2ccccc2)OC(C(=O)O)=CC1=O (stereo not given) [Acifran] | 1.02
14 | Clc1ccc(C(Cn2ccnc2)OCc2ccc(Sc3ccccc3)cc2)c(Cl)c1 (stereo not given) [Fenticonazole nitrate] | 1.27
15 | CC[C@H](C)C(=O)O[C@H]1C[C@@H](C)C=C2C=C[C@H](C)[C@H](CC[C@@H]3C[C@@H](O)CC(=O)O3)[C@H]21 [Lovastatin] | 1.01 ± 0.058
16 | CC[C@H](C)C(=O)O[C@H]1C[C@@H](C)C=C2C=C[C@H](C)[C@H](CC[C@@H]3C[C@@H](O)CC(=O)O3)[C@H]21 [Lovastatin (Mevacor)] | 1.09
17 | Cc1c(C)c2c(c(C)c1O)CCC(C)(C(=O)O)O2 (stereo not given) [Trolox] | 0.939 ± 0.061
18 | O=c1[nH]c2cc(C(F)(F)F)ccc2n1-c1cc(C(F)(F)F)ccc1O | 1.03

(list continues)

Row | Compound | surface PD-L1 immunofluorescence intensity
26 | O=C(O)Cc1cccc(OCCCN(Cc2cccc(C(F)(F)F)c2Cl)CC(c2ccccc2)c2ccccc2)c1 [GW 3965 hydrochloride] | 1.01
27 | CC(=O)O[C@H]1C[C@@]2(C)[C@@H](C[C@@H](O)[C@H]3[C@@]4(C)CC[C@@H](O)[C@@H](C)[C@@H]4CC[C@@]32C)/C1=C(\CCC=C(C)C)C(=O)O [Fusidic acid sodium salt] | 0.956
28 | O=C1CCN(c2ccccc2)N1 [Phenidone] | 1.01
29 | C[C@H]1NC(=O)NC1=O [Methylhydantoin-5-(D)] | 1.11
30 | Cc1ccnc(NS(=O)(=O)c2ccc(N)cc2)n1 [Sulfamerazine] | 1.01
31 | CCC[S+]([O-])c1ccc2[nH]c(NC(=O)OC)nc2c1 (stereo not given) [Albendazole Oxide (Ricobendazole)] | 1.05
32 | N=C(N)NCc1cccc(I)c1 [Iobenguane sulfate] | 1.06
33 | NCCCC(O)(P(=O)(O)O)P(=O)(O)O [Alendronate sodium] | 1.03
34 | NCCCC(O)(P(=O)(O)O)P(=O)(O)O [Alendronate] | 1.05
35 | NCCCC(O)(P(=O)(O)O)P(=O)(O)O [Alendronate (Fosamax)] | 0.992
36 | Nc1ccc(S(=O)(=O)Nc2cnc3ccccc3n2)cc1 [Sulfaquinoxaline sodium salt] | 0.98
37 | CNC[C@H](O)[C@@H](O)[C@H](O)[C@H](O)CO [Meglumine] | 1.12
38 | COC(=O)N[C@H](C(=O)N[C@@H](Cc1ccccc1)[C@@H](O)CN(Cc1ccc(-c2ccccn2)cc1)NC(=O)[C@@H](NC(=O)OC)C(C)(C)C)C(C)(C)C [Atazanavir sulfate] | 0.984
39 | CCCCNc1cc(C(=O)O)cc(S(N)(=O)=O)c1Oc1ccccc1 [Bumetanide] | 0.905
40 | C[C@H](Cn1cnc2c(N)ncnc21)OCP(=O)(O)O [Tenofovir (Viread)] | 0.951
41 | CNC(=O)c1c(I)c(C(=O)NCC(=O)Nc2c(I)c(C(=O)O)c(I)c(C(=O)NCCO)c2I)c(I)c(N(C)C(C)=O)c1I [Ioxaglic acid] | 1.06
42 | CC(=O)Oc1ccccc1C(=O)Oc1ccccc1C(=O)O [Acetylsalicylsalicylic acid] | 0.901
43 | CC(C)n1c(/C=C/C(O)CC(O)CC(=O)O)c(-c2ccc(F)cc2)c2ccccc21 (stereo not given) [Fluvastatin sodium (Lescol)] | 1.16
44 | CC(C)n1c(/C=C/C(O)CC(O)CC(=O)O)c(-c2ccc(F)cc2)c2ccccc21 (stereo not given) [Fluvastatin sodium salt] | 1.13
45 | O=C(NCCCN1CCCCCC1)C(c1ccccc1)C1CCCCC1 (stereo not given) | 1.03
46 | O=c1ccn([C@@H]2O[C@H](CO)[C@@H](O)[C@H]2O)c(=O)[nH]1 [Uridine] | 1.18
47 | COc1ccc2[nH]c(-c3ccccc3)c(CCNC(C)=O)c2c1 [2-Phenylmelatonin] | 0.99
48 | CN1C(=O)OC(C)(C)C1=O [Trimethadione] | 1.04
49 | CN(C/C=C/c1ccccc1)Cc1cccc2ccccc12 [Naftifine hydrochloride] | 0.938
50 | OCCN1CCN(CCCN2c3ccccc3C=Cc3ccccc32)CC1 [Opipramol dihydrochloride] | 1.08
